At least one structure is not confirmed: it was looked up by name or label, or the drawing left a doubt. Some results were stated once for a whole list of compounds, not compound by compound.
Legend:
human Phgdh = molecular target: T1, human Phgdh (Homo sapiens, UniProt O43175); experiment: Phgdh activity assay (colorimetric kit, NADH at 450 nm); type: biochemical; details: for increased Phgdh activity as compared to DMSO control: 25 μM compound, 0.35 μM enzyme, activity over time at 37° C.
T1 construct: purchased BPS bioscience 71079
T1 sequence (O43175 1-533): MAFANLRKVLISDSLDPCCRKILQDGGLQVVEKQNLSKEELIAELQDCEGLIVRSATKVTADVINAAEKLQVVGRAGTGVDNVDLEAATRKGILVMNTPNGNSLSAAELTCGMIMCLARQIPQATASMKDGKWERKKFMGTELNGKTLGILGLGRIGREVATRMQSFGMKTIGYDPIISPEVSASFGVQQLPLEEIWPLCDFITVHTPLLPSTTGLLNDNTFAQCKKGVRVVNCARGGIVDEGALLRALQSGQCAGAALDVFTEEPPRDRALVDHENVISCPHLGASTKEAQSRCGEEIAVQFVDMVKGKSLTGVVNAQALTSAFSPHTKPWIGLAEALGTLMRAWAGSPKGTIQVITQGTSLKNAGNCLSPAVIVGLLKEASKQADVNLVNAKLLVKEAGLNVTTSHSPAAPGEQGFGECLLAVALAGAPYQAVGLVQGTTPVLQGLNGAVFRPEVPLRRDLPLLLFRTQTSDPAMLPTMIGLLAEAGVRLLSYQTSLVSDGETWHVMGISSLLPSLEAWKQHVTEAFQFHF
Description: Phgdh enzyme activity upon drug treatment was tested using human Phgdh (BPS bioscience, 71079) and a specific colorimetric Phgdh activity kit (Biovision, K569). The Phgdh inhibitor Disulfiram [Spillier et al. (2019) Sci Rep. 9, 4737], served as […].
Briefly, Human Phgdh enzyme was diluted in assay buffer at a concentration of 0.38 mg/mL. Next, 5 μl of this Phgdh enzyme solution and 5 μL of the compounds in 5% DMSO and assay buffer was added (to wells of flat bottom 96-well plate). Subsequently, 40 μl Phgdh assay buffer (Biovision) and 50 μl Phgdh reaction mix (prepared as described in the protocol of the Phgdh assay kit K569, Biovision) was added. The final amount of enzyme per reaction was 0.35 μM. Afterwards, absorbance at 450 nm, indicative for the amount of NADH generated, was measured over time. NADH is one of the end products of the reaction. In between measurements, the plate was incubated at 37° C., protected from light.

[1] = tested on: EKP induced seizures in zebrafish larvae; experiment: Zebrafish drug resistant epilepsy model: ethyl ketopentenoate (EKP), locomotor tracking; type: in vivo; details: DS 0.156 μM, CBR 0.0781 μM, 300 μM EKP
Description: Larvae (7 dpf) in 100 μl VHC were arrayed individually in a 96-well plate (tissue culture plate, at bottom, Falcon, USA) and kept in the light at 28° C. Two-hours before tracking compound (clioquinol (CQ), chloroxine (CH), PBT-1033) and/or inhibitor (disulfiram (DS), CBR) was added at their MTC to the larvae and afterwards the 96-well plates were placed in darkness at 28° C. for 2 hours. Just prior to tracking 100 µl of VHC or EKP stock solution was added to each well to obtain a EKP concentration of 300 μM. The plates were placed in an automated video tracking device (ZebraBox™ apparatus; Viewpoint, Lyon, France) and the locomotor behavior of the larvae was monitored for 40 min in the dark at 28° C. Locomotor activity was quantified using ZebraLab™ software (Viewpoint, Lyon, France) and expressed in “actinteg” units per 5-min interval. For each larvae, 30 min of tracking data after the effect of EKP was initiated was used. The actinteg value is defined as the sum of all image pixel changes detected during the time window.
Locomotor activity was quantified using ZebraLab™ software (Viewpoint, Lyon, France) and expressed in mean “actinteg” units per 5-min+/−SEM during a 30 min recording interval relative to EKP only. Statistical analysis: one-way ANOVA with Dunnett's multiple comparison test. A statistical difference is indicated by: ****p<0.0001. […]

| Structure (SMILES) | increased Phgdh activity as compared to DMSO control (human Phgdh) | effect of co-administration on haloquinoline-induced Phgdh activation (human Phgdh; co-administered with the haloquinolines, data not shown) | effect of inhibitor co-incubation on the anti-seizure effect of clioquinol and chloroxine [1] |
| --- | --- | --- | --- |
| CN(C)Cc1ccc2c(Cl)cc(Cl)c(O)c2n1 [PBT-1033] | 30-40% |  |  |
| O=[N+]([O-])c1ccc(O)c2ncccc12 [Nitroxoline] | 30-40% |  |  |
| Oc1ccc(Cl)c2cccnc12 [cloxyquin, 5-Chloro-8-quinolinol] | 70-80% |  |  |
| CCN(CC)C(=S)SSC(=S)N(CC)CC [disulfiram] |  | completely blocked | counteracted |

— patent US20230103644A1, “TREATMENT OF EPILEPSY” (Katholieke Universiteit Leuven, priority 2020, published 2023)
